Article doi:10.1101/2019.12.17.878660 (bioRxiv, 2019)

By UniProt entry, the sequences of proteins in these tests, tags left out. Where a name states a change or a piece, a line headed by the entry shows the natural chain unless it says otherwise.
UniProt P0ABZ6: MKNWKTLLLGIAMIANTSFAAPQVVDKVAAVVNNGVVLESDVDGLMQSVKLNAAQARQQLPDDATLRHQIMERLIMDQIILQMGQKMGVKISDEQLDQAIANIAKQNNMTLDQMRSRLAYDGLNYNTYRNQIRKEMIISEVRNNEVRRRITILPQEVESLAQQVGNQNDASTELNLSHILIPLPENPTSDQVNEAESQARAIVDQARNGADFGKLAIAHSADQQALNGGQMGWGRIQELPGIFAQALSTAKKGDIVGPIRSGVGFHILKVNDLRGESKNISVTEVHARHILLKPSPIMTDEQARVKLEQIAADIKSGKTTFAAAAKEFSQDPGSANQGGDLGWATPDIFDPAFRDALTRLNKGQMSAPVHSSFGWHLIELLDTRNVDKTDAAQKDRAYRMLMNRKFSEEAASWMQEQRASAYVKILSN

Target: uOmpA171 (the transmembrane domain of uOmpA) (E. coli) (UniProt P0A910)
Assay: cross-linking

binding | Substance
binds | SurA (from UniProt P0ABZ6 21-428)
binds weakly | “locked-closed” SurA variant (P61C/A218C) (from UniProt P0ABZ6 21-428)

Results are given in words; binding and its absence hold for the method and conditions named. Binding can be weak; no strength is given.
